In assay [1] the target is T1, F-box protein 9 (FBXO9) (mouse (endogenous in BMDM-derived osteoclasts; species of the cells not stated by the paper)) (UniProt Q8BK06).
T1 sequence: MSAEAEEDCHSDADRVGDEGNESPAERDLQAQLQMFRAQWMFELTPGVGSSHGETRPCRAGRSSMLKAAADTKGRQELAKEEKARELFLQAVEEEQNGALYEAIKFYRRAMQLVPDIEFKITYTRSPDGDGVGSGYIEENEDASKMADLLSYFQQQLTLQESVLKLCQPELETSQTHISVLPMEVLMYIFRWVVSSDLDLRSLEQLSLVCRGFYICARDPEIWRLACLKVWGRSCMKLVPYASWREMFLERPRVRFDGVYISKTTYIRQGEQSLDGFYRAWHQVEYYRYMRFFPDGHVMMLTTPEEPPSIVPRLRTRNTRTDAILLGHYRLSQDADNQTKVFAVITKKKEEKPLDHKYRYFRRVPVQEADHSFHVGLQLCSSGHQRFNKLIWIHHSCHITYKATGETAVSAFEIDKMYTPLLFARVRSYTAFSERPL
Kind of assay: co-IP; reciprocal co-IP from lysates of BMDMs-induced osteoclasts in NP40 buffer (10 mM Tris-HCl pH 8.0, 140 mM NaCl, 1.5 mM MgCl2, 0.5% Nonidet-P40, 20 mM dithiothreitol, 0.5% deoxycholate); FBXO9 or p53 antibody (2 ug/ml) for 4 h, Protein A/G beads overnight at 4 C; western blot with FBXO9 or p53 antibody; IgG as control. Background: In western blotting, separated proteins are transferred to a membrane and probed.

Amino acid sequences for entries named in this document (tags omitted).
UniProt P02340: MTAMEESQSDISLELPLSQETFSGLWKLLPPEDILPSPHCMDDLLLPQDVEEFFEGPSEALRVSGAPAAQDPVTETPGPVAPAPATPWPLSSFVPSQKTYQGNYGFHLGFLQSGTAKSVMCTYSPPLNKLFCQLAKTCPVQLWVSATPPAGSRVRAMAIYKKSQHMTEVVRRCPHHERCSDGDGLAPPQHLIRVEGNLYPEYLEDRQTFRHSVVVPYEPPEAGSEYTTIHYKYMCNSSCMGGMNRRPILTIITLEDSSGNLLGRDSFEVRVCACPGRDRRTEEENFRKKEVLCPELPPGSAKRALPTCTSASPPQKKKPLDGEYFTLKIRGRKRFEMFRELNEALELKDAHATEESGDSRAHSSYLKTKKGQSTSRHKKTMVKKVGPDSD

The target in assay [2] is p53 (mouse (endogenous in BMDM-derived osteoclasts; species of the cells not stated by the paper)) (UniProt P02340). The description is as above.

Results are given in words; binding and its absence hold for the method and conditions named. In cells and extracts the contact can be indirect. Some results given as binding are weak or reduced against the parent protein; the word gives no strength.

Regarding p53 (from UniProt P02340 1-390), in assay [1], the binding entry is given as “binds”.

B1: F-box protein 9 (FBXO9) (protein, UniProt Q8BK06 1-437)
chain: T1 sequence
On to B1, for which, in assay [2], the binding entry is “binds”.

Source of the values: paper PMC8684721.
